The whole screen tested about 390,000 compounds, of which about 4,000 (1%) were called active. This list was built around the results that the source calls inconclusive (neither active nor inactive); the mix of calls is not that of the screen. Calls follow the shape of the dose curve; as a rule, active = well fitted inhibition curve with a large enough effect; inconclusive = small, poorly fitted or top-dose-only effect, or another doubt; inactive = no such curve, though single readings can be large or run the other way. A potency beside an inconclusive call is a rough fit, not a confirmed value.
Target: DNA polymerase iota (Homo sapiens) (UniProt Q9UNA4)
Experiment: qHTS for Inhibitors of Polymerase Iota
Settings: Pol iota fluorescent replication assay, 10 min; series mostly up to 115 µM
Description: DNA polymerases, such as Pol iota, are specifically involved in DNA repair. Pol iota specifically plays an important role in translesion synthesis, where the normal high-fidelity DNA polymerases cannot proceed and DNA synthesis stalls. […] Thus, while pol eta's (and most likely iota's) normal function is to protect humans against the deleterious consequences of DNA damage, under certain conditions they can have deleterious effects on human health. As a consequence, we propose to utilize a high throughput replication assay to identify small molecule inhibitors of pol iota.
In a collaboration between the National Institute of Child Health & Human Development (NICHD) and NIH Chemical Genomics Center, a high-throughput, fluorescent screen was developed to screen the NIH Molecular Libraries Small Molecule Repository (MLSMR). This screen is used to identify inhibitors of pol iota.
NIH Chemical Genomics Center [NCGC]
NIH Molecular Libraries Probe Centers Network [MLPCN]
Assay Submitter (PI): Roger Woodgate, NICHD)
Three microliters of reagents (buffer in column 3 and 4 as negative control and 10 nM Pol iota in columns 1, 2, and 5-48) will be dispensed into 1,536-well black solid-bottomed plate. Compounds (23 nL) will be transferred via Kalypsys pin tool equipped with 1536-pin array. The plates will then be incubated for 15 min at room temperature, and 1 µL substrate (50 nM final concentration) will be added to start the reaction and kinetically read twice at 0 min and 10 min on the Viewlux reader.
Potency is read from the fitted curve at half-maximal effect.

The chains behind the UniProt entries cited, without tags or fusion partners. Where a name states a change or a piece, a line headed by the entry shows the natural chain unless it says otherwise.
UniProt Q9UNA4: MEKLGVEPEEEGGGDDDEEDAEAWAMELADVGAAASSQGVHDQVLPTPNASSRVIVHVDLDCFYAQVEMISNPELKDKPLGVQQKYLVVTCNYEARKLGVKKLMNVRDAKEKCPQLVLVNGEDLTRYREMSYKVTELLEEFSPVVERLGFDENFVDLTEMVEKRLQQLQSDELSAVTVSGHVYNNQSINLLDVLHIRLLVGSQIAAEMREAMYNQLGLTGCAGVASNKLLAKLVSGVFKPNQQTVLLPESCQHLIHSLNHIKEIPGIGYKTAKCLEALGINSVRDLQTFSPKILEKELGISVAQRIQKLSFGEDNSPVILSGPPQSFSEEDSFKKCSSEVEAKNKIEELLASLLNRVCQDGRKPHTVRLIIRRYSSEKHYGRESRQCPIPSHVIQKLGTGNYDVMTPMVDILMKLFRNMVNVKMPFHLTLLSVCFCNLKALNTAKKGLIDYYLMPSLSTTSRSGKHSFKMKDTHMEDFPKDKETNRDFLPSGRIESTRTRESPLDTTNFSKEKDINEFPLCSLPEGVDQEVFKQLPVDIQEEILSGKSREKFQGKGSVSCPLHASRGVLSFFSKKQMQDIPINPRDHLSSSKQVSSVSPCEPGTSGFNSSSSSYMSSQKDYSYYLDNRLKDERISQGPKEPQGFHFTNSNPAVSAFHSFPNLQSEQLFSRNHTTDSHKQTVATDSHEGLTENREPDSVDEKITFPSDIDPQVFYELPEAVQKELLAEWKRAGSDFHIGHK

| SMILES | Potency |
| --- | --- |
| CC(C)N(Cc1ccccc1)C(=O)/C=C/c1ccccc1[N+](=O)[O-] | inconclusive: 20 µM [inhibitor, partial curve, poor fit] |
| O=C(CSc1nc2ccccc2c2nc3ccccc3n12)NCc1ccco1 | inconclusive: 31.6 µM [inhibitor, full curve, poor fit] |
| O=C(CCc1ccco1)CCc1ccco1 | active: 25.1 µM |
| O=C(CCNC(=O)c1ccccc1Cl)NCc1ccncc1 | inconclusive: 100 µM [inhibitor, single point] |
| COc1cccc(-c2cc(C(F)(F)F)nc(NCc3ccco3)n2)c1 | inconclusive: 31.6 µM [inhibitor, single point] |
| CCOC(=O)c1c(Oc2ccc(C(C)=O)cc2)nnc(-c2ccccc2)c1-c1ccccc1 | inactive |
| CCOC(=O)C1=C(COC(=O)/C=C/c2ccc(C)o2)NC(=O)NC1C (stereo not drawn) | inconclusive: 89.1 µM [inhibitor, partial curve, poor fit] |
| COc1cc(/C=N/N2CCCCC2)cc([N+](=O)[O-])c1O | inconclusive: 17.8 µM [inhibitor, full curve] |
| O=C(CC1N=C2c3ccccc3N=C(SCC(=O)Nc3ccc(F)cc3)N2C1=O)NCc1cccs1 (stereo not drawn) | inconclusive: 39.8 µM [inhibitor, partial curve, poor fit] |
| COc1ccc(NC(=O)CN2CCC(NC(=O)C3CCCCC3)CC2)c([N+](=O)[O-])c1 | inconclusive: 79.4 µM [inhibitor, single point] |
| CN(C)c1ccc(N=Nc2cccc3ccoc23)cc1 | inactive |
| C#CCOCCOCCOCCNc1nc(N2CCN(C(=O)[C@H]([C@@H](C)CC)n3cc(CCC(=O)O)nn3)CC2)nc(N2CCN(C(=O)[C@H](C)n3cc(CCCN=C(N)N)nn3)CC2)n1 | inactive |
| Cc1ccc2nc(C3CCN(C(=O)c4ccco4)CC3)[nH]c2c1 | inconclusive: 39.8 µM [inhibitor, single point] |
| COc1cccc(CNC(=O)CCN2C(=S)NC(C)(C)CC2C)c1 (stereo not drawn) | inconclusive: 1.26 µM [inhibitor, partial curve, poor fit] |
| CC(CCc1ccccc1)NC(=O)CNC(=O)c1ccccc1Br (stereo not drawn) | inactive |
| CC12CCC(=O)N1C(C(=O)Nc1nc3c(F)cc(F)cc3s1)CS2 (stereo not drawn) | inconclusive: 31.6 µM [inhibitor, partial curve] |
| O=C(Nc1cccc([N+](=O)[O-])c1)c1ccc2snnc2c1 | inactive |
| O=C(NCc1ccco1)c1cnccn1 | inconclusive: 0.631 µM [inhibitor, full curve, poor fit] |
| Cc1ccc(OCC(=O)OCc2cc(=O)n3nc(C4CC4)sc3n2)cc1 | active: 89.1 µM |
| COc1ccc(C=C2C(=O)OC(C)(C)OC2=O)cc1OC | inactive |
| O=[N+]([O-])c1ccc(O/N=[N+](\[O-])N2CCN(c3ncccn3)CC2)c([N+](=O)[O-])c1 | inconclusive: 28.2 µM [inhibitor, partial curve, poor fit] |

| SMILES | Potency |
| --- | --- |
| CC(C)C[C@H]1CN=C(Nc2ccccc2)N1CCc1cccc(F)c1 | inconclusive: 39.8 µM [inhibitor, partial curve, poor fit] |
| COc1ccc(CCNC(=O)C2COc3ccccc3C2)cc1OC (stereo not drawn) | inactive |
| O=C(Nc1ccc(-c2nc3cc(NC(=O)c4cccs4)ccc3o2)cc1)c1cccs1 | inactive |
| O=C(c1ccc2nc3ccccc3c(=O)n2c1)N1CCN(Cc2ccc3c(c2)OCO3)CC1 | inconclusive: 70.8 µM [inhibitor, partial curve] |
| COc1ccc(Nc2ncnc3c2cnn3-c2ccccc2)cc1OC | inconclusive: 17.8 µM [inhibitor, full curve, poor fit] |
| Cc1ccccc1NC(=O)CSc1nc2cc3c(cc2cc1C)CCC3 | inconclusive: 56.2 µM [inhibitor, partial curve, poor fit] |
| N=c1c2c(n(Cc3cccc(Cl)c3)c3c1CCC3)CCCC2 | inconclusive: 100 µM [inhibitor, partial curve, poor fit] |
| COc1ccc(-c2[nH]nc3c2C(c2ccsc2)C(C#N)=C(N)O3)cc1 (stereo not drawn) | inactive |
| CN1CCN(C(=O)CCn2c(=O)c3cccn3c3cccnc32)CC1 | inactive |
| O=C(CN1C(=O)C(=O)N(C2CCCC2)C1=O)NCCc1ccc(Cl)cc1Cl | inconclusive: 89.1 µM [inhibitor, partial curve, poor fit] |
| COc1cccc(NC(=O)CN(C)CC(=O)NCc2ccco2)c1 | inactive |
| CCCC[C@@H]1C=C(C(=O)O)[C@H](c2ccc(Cl)c(Cl)c2)N1S(=O)(=O)c1ccc(C)cc1 | inconclusive: 56.2 µM [inhibitor, partial curve, poor fit] |
| CCOc1ccc(NC(=O)c2ccc(F)c(S(=O)(=O)N3CCN(c4ccccn4)CC3)c2)cc1 | inconclusive: 3.55 µM [inhibitor, full curve] |
| CC(=O)c1sc2nc(SCC(=O)N3CCCCC3)[nH]c(=O)c2c1C | inconclusive: 22.4 µM [inhibitor, full curve, poor fit] |
| CC(N)C12CC3CC(C1)CC(C(C)N)(C3)C2 (stereo not drawn) | inconclusive: 35.5 µM [inhibitor, single point] |
| O=C(O)c1c2c(nc3ccc(S(=O)(=O)N4CCC(C(=O)NC5CCCC5)CC4)cc13)CCCCC2 | inconclusive: 39.8 µM [inhibitor, partial curve, poor fit] |
| O=C(O)c1ccc(/C=C2\COc3ccccc3C2=O)cc1 | inconclusive: 4.47 µM [inhibitor, full curve, poor fit] |
| COc1ccc(S(=O)(=O)N2CC(O)CC2C(=O)OCc2nc3sc(C)c(C)c3c(=O)[nH]2)cc1 (stereo not drawn) | inconclusive: 28.2 µM [inhibitor, partial curve, poor fit] |
| Cn1c(NC(=O)Cc2ccc(F)cc2)cc(=O)n(C)c1=O | inconclusive: 89.1 µM [inhibitor, single point] |
| COc1ccc(NC(=O)Cn2cc(S(=O)(=O)Cc3ccc(F)cc3)c3ccccc32)cc1OC | inconclusive: 50.1 µM [inhibitor, partial curve] |
| Cc1ccc(C=C2C(=O)c3ccccc3C2=O)s1 | active: 25.1 µM |

Structures listed so far with a Cl atom:

| SMILES | Potency |
| --- | --- |
| O=C(CCNC(=O)c1ccccc1Cl)NCc1ccncc1 | inconclusive: 100 µM [inhibitor, single point] |
| N=c1c2c(n(Cc3cccc(Cl)c3)c3c1CCC3)CCCC2 | inconclusive: 100 µM [inhibitor, partial curve, poor fit] |
| O=C(CN1C(=O)C(=O)N(C2CCCC2)C1=O)NCCc1ccc(Cl)cc1Cl | inconclusive: 89.1 µM [inhibitor, partial curve, poor fit] |
| CCCC[C@@H]1C=C(C(=O)O)[C@H](c2ccc(Cl)c(Cl)c2)N1S(=O)(=O)c1ccc(C)cc1 | inconclusive: 56.2 µM [inhibitor, partial curve, poor fit] |

The list goes on.

| SMILES | Potency |
| --- | --- |
| Cc1ccc(-n2c(=O)c3c4c(sc3n(CC(=O)Nc3ccccc3C)c2=O)CCCCC4)cc1C | inconclusive: 39.8 µM [inhibitor, single point] |
| O=C1C(=C(O)c2ccccc2)C(=O)c2ccccc21 | inconclusive: 20 µM [inhibitor, partial curve, poor fit] |
| O=C(N[C@H]1C/C=C\C[C@@H](CC(=O)N(CCO)Cc2ccccc2)C(=O)N[C@H](Cc2c[nH]c3ccccc23)COC1=O)OCC1c2ccccc2-c2ccccc21 | inconclusive: 39.8 µM [inhibitor, partial curve, poor fit] |
| Cc1ccc(C)n1/N=C1/NC(=O)CS1 | active: 2.51 µM |
| COc1ccc(CN2C(=O)N(c3ccccc3)C(=O)C2c2ccccc2)cc1COc1ccc(NC(C)=O)cc1 (stereo not drawn) | inconclusive: 79.4 µM [inhibitor, single point] |
| Cc1nc2ccccn2c1C(=O)N/N=C/c1ccc([N+](=O)[O-])cc1 | inactive |
| O=C(COc1ccc(/C=N/NC(=O)c2ccccc2O)cc1)Nc1ccc([N+](=O)[O-])cc1 | inconclusive: 3.55 µM [inhibitor, partial curve, poor fit] |
| CC(C)(C)C1CCC2(CC1)C(C#N)=C(SCC(=O)Nc1ccccc1)NC(=O)C2C#N (stereo not drawn) | inconclusive: 14.1 µM [inhibitor, partial curve, poor fit] |
| O=C(COC(=O)Cc1ccc(S(=O)(=O)N2CCOCC2)s1)Nc1ccc(OC(F)F)cc1 | inconclusive: 22.4 µM [inhibitor, partial curve, poor fit] |
| COc1cc(C(=O)Nc2ccc3c(c2)C(=O)c2ccccc2C3=O)cc(OC)c1OC | inactive |
| CCN1CCN(C(=O)c2cc3c(s2)-c2ccccc2S(=O)(=O)C3)CC1 | inconclusive: 100 µM [inhibitor, single point] |
| Nc1ccc2nc3c(=O)[nH]c(=S)[nH]c3nc2c1 | inconclusive: 0.708 µM [inhibitor, full curve, poor fit] |
| CCCOc1ccc(C2C(C(=O)OC)=CN(CCOC)C=C2C(=O)OC)cc1 | inconclusive: 0.316 µM [inhibitor, full curve, poor fit] |
| Cc1ccc(NC(=O)CSc2ncc3ccccn23)cc1C | inconclusive: 31.6 µM [inhibitor, single point] |
| CC1CC(C)CN(CCCNC(=O)C2CCN(S(=O)(=O)N3CCCCC3)CC2)C1 (stereo not drawn) | inconclusive: 100 µM [inhibitor, partial curve, poor fit] |
| COc1ccc(-c2noc(-c3ccc(NCC4CCCO4)c([N+](=O)[O-])c3)n2)cc1OC (stereo not drawn) | inactive |
| CCOc1c2ccc(C(=O)N[C@H](C)C3CCCCC3)cc2nn1CC | inconclusive: 39.8 µM [inhibitor, single point] |
| O=C1NC(=Nc2ccccc2)S/C1=C/c1cccs1 | inconclusive: 63.1 µM [inhibitor, single point] |
| COc1ccccc1Cc1nc2ccccc2nc1SCC(=O)NCc1ccccc1Cl | inactive |
| COc1cc(C2C(C(=O)c3ccc(C)o3)=C(O)C(=O)N2c2cc(C)on2)cc(Br)c1O (stereo not drawn) | inconclusive: 31.6 µM [inhibitor, partial curve, poor fit] |
| O=[N+]([O-])c1ccc(Cl)c(/C=N/n2c(-c3ccncc3)n[nH]c2=S)c1 | inconclusive: 44.7 µM [inhibitor, partial curve, poor fit] |
